This is one part of the list. These are further read-outs of the screen, such as a control signal, another cell line or another target. No call is given for them. The list favours compounds with an active or inconclusive main result. Potencies come from curve fits of mixed quality, noted in brackets.

A short description of the experiment: qHTS Assay for Lipid Storage Modulators in Drosophila S3 Cells.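 On cell number change: cells counted by Cell Tracker Red CMTPX staining in the red channel.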 Particulars: BODIPY lipid droplet fluorescence, 18-24 h; for cell number change: measured here: cell count max response, cells fed with added oleic acid. A digest of the protocol: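 Laser-scanning cytometry quantifies lipid droplet accumulation (500–530 nm total intensity; droplet/cell object ratio) in oleic acid-fed (400 uM added) Drosophila S3 cells treated with a concentration series. 20 uM Triacsin C defined 100% inhibition.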
A general note: qHTS replaces the single test concentration by a dilution series.

[1] abbreviates: measured here: cell number channel AC50, cells fed with added oleic acid.
The mark [2] stands for this setting: measured here: lipid fluorescence (Fed channel) AC50, cells fed with added oleic acid.

Turning to `Clc1ccc(-c2csc(N3CCC(c4ccccc4)C3)n2)cc1` (stereo unspecified), the cell number change was -28%.
In the case of `N#Cc1nc(COc2cccc(Cl)c2)oc1NCc1ccncc1`, the AC50 (in general, the concentration at which the activity in the assay is half-maximal) by setting is: under setting [1], 3.66 µM [falling, single point]; under setting [2], 1.16 µM [rising, single point].
With `Cc1ccc(S(=O)(=O)N(c2nc(NC(C)C)nc(NC(C)C)n2)n2cnnc2)cc1`, the cell number change was determined as 8.53%. Further, under setting [2], the AC50 is 0.184 µM [falling, partial curve].
As for `CC(C)(C)N(NC(=O)Nc1ccccc1)C(=O)c1ccccc1`, the cell number change is -83.3%. The AC50 under setting [2] was 0.146 µM [falling, full curve, poor fit].
With `Oc1c(Cl)cc(Cl)cc1CNn1cnnc1`, the cell number change is 10.3%.
As to `NS(=O)(=O)c1ccc(CCNC(=O)CCCn2c(=O)[nH]c3ccc(Br)cc3c2=O)cc1`, the cell number change came out at 44.1%. Moreover, under setting [1], the AC50 is 7.31 µM [rising, partial curve].
With `O=C(NC1CCCc2ccccc21)C1CCN(S(=O)(=O)c2cccc(C(F)(F)F)c2)CC1` (stereo unspecified), the cell number change was -1.77%. The AC50 under setting [2] was 11.6 µM [rising, partial curve, poor fit].
As for `O=C(Nc1nnc(-c2ccc(Cl)cc2)o1)Nc1ccccc1F`, the cell number change amounted to 7.09%. Further, under setting [2], the AC50 was 13 µM [rising, partial curve, poor fit].
As for `CC(=O)NCc1ccc(S(=O)(=O)NC(C(=O)O)C(C)C)cc1` (stereo unspecified), the cell number change is -36.2%. The AC50 under setting [1] is 0.231 µM [falling, full curve, poor fit].
With `CS(=O)(=O)N(CCC#N)Cc1ccc(C=O)o1`, the cell number change is -18.4%. Besides, under setting [1], the AC50 was 3.66 µM [falling, single point]. Moreover, the AC50 under setting [2] was 14.6 µM [falling, single point].
Take `CCc1c(C)[nH]n(-c2nc(-c3cccc([N+](=O)[O-])c3)cs2)c1=O`: the cell number change was 11%. The AC50 under setting [2] was 0.00411 µM [rising, full curve, poor fit].
Take `O=C1/C(=N\S(=O)(=O)c2cccs2)C([n+]2ccccc2)=C([O-])c2ccccc21`: under setting [2], the AC50 was 14.6 µM [falling, partial curve].
As to `O=C(c1cccc([N+](=O)[O-])c1)c1ccc2c(c1)OCCOCCOCCOCCO2`, the cell number change came out at 10.5%. Also, under setting [2], the AC50 is 0.651 µM [rising, full curve, poor fit].
Regarding `Cc1nnc(C)n1/N=C/c1cccnc1`, the cell number change is -13.9%. For the same compound, under setting [2], the AC50 was 16.4 µM [falling, partial curve].
Consider `CCOC(=O)COn1c2c(c3c4no[n+]([O-])c4ccc31)CCCC2`, for which the cell number change came out at 8.76%.
For the compound `Cc1cc(NS(=O)(=O)c2ccc(NC(=S)NC(=O)c3ccc(C(C)(C)C)cc3)cc2)no1`, the cell number change is 17.4%. For the same compound, under setting [2], the AC50 is 16.4 µM [rising, single point].
On to `C=CCn1c(N2C(=O)CC(Cc3ccccc3)C2=O)nc2ccccc21` (stereo unspecified), for which, under setting [2], the AC50 is 1.3 µM [rising, full curve].
Turning to `O=C(CSc1nnc(-c2ccccc2)o1)N1CCc2ccccc2C1`, the AC50 under setting [1] was 6.51 µM [rising, single point].
Turning to `COc1ccc(CCNC(=O)CSc2nc3[nH]ncc3c(=O)n2-c2ccc(C)c(Cl)c2)cc1OC`, the cell number change is -17.2%. For the same compound, the AC50 under setting [2] is 32.6 µM [falling, single point].
Turning to `CC1=C(C(=O)Nc2ccc(C(=O)NC(C)c3ccccc3)cc2)SCCO1` (stereo unspecified), the cell number change is 7.49%.
In the case of `COC(=O)CCNC(=O)c1ccc2[nH]c(C)c(C)c2c1`, the cell number change was found to be 24.5%. Also, the AC50 under setting [2] was 6.51 µM [rising, single point].
As for `COc1cccc(NC(=O)COC(=O)c2c(NC(C)=O)sc(C)c2C)c1`, the cell number change was -32.4%. Moreover, under setting [1], the AC50 is 29.1 µM [falling, single point].
`CCOC(=O)N1CCN(C(=O)c2c(-c3c(Cl)cccc3Cl)noc2C)CC1`: the cell number change was found to be 34.8%. Besides, the AC50 under setting [1] is 32.6 µM [rising, partial curve, poor fit].
On to `CCOc1ccc2nc(N(CCCN(C)C)C(=O)c3ccc(S(=O)(=O)N4CCCC4)cc3)sc2c1`, for which the cell number change came out at 5.39%. The AC50 under setting [2] was 0.411 µM [rising, single point].
As to `CC(=O)N(C)c1ccc(NC(=O)N2CCOCC2)cc1`, the cell number change was -6.04%. The AC50 under setting [2] is 6.51 µM [rising, partial curve, poor fit].
As for `Cc1c(/C=N/NC(=O)c2ccccc2O)c2ccccn2c1C(=O)c1ccc(F)cc1`, the cell number change was found to be 41.9%. Also, the AC50 under setting [1] was 2.31 µM [rising, partial curve]. Further, under setting [2], the AC50 was 1.64 µM [rising, partial curve].
Regarding `Nc1nncn1C(=O)c1c(Cl)cccc1Cl`, the cell number change is -1.75%.
As for `COc1ccc(C(CNC(=O)Cc2ccc(-c3ccccc3)cc2)N(C)C)cc1` (stereo unspecified), the cell number change stood at 33.1%. In addition, the AC50 under setting [1] is 32.6 µM [rising, single point].
With `CCOc1ccc2[nH]c(S(=O)(=O)CC)nc2c1Cl`, the cell number change was found to be 0.128%. Also, the AC50 under setting [2] is 1.46 µM [falling, partial curve].
Turning to `CCN1CCN(CC(=O)Nc2ccc(Cl)c(Cl)c2)C(=O)C1=O`, the cell number change was found to be 17.3%. Under setting [1], the AC50 is 0.206 µM [rising, full curve, poor fit]. The AC50 under setting [2] is 18.4 µM [falling, single point].
Turning to `O=C(CN(Cc1ccco1)C(=O)c1ccc(N2CCCC2=O)cc1)Nc1ccccc1C(F)(F)F`, the AC50 is 1.64 µM [rising, partial curve] under setting [1] and 0.13 µM [rising, single point] under setting [2].
Turning to `O=C(CCc1ccccc1)Nc1ccccc1F`, the cell number change is -4.34%. Under setting [2], the AC50 is 1.46 µM [falling, full curve].
`O=C(CSc1nnc2scc(-c3ccccc3)n12)Nc1nsc(-c2ccccc2)n1`: under setting [2], the AC50 is 0.146 µM [rising, full curve, poor fit].
Consider `CCCCC(C(=O)NC(C)(C)C)N(Cc1ccccc1Cl)C(=O)c1snc(C(N)=O)c1N` (stereo unspecified), for which the cell number change is -19.4%.
Regarding `Cc1ccc(CONC(=O)c2ccccc2)cc1`, the cell number change is -0.292%. Besides, the AC50 under setting [2] was 0.651 µM [falling, full curve, poor fit].
Consider `COc1ccc(S(=O)(=O)NC(C)C(=O)N2CCCC2)cc1C` (stereo unspecified), for which the cell number change was -15.4%.
For `CCOC(=O)c1sc(NC(=O)CSc2nc3cccnc3n2C)nc1C`, the cell number change was found to be 17.9%. Further, under setting [2], the AC50 was 6.51 µM [rising, single point].
On to `COc1ccc(N2CCN(C(=O)CCc3nnc4ccc(N5CCCC5)nn34)CC2)cc1`, for which the cell number change was 15.8%. Also, under setting [1], the AC50 was 6.51 µM [rising, single point]. In addition, the AC50 under setting [2] was 29.1 µM [rising, single point].
In the case of `CCOC(=O)c1nnn(CC(=O)N2N=C(c3cc(C)ccc3C)CC2c2ccc(OC)cc2)c1C(=O)OCC` (stereo unspecified), the cell number change stood at 16.2%. In addition, the AC50 under setting [2] is 29.1 µM [falling, single point].

Source of the values: PubChem BioAssay AID2685 (National Center for Advancing Translational Sciences (NCATS), 2010).
